Patent publication US20130005759A1, “SMALL MOLECULE MODIFIERS OF MICRORNA MIR-122” (North Carolina State University, priority 2010, published 2013)
Some results were stated once for a whole list of compounds, not compound by compound.

Test system: miR-122
Assay: psiCHECK-miR122 dual luciferase reporter assay in Huh7 cells
Format: cell-based, human
Conditions: Huh7, psiCHECK-miR122, 10 μM, mean ± SD of three independent assays
Source text: A miRNA small molecule modifier screen for miR-122 was developed based on the psiCHECK-2 (Promega) reporter plasmid (FIG. 9). This construct expresses both Renilla luciferase as well as firefly luciferase, allowing for the normalization of the signal to account for differential cellular viability and variability in transfection efficiency. The miR-122 target sequence was inserted downstream of the Renilla luciferase gene, between the PmeI and SgfI restriction sites. […]
The presence of mature miR-122 will lead to a decrease in the Renilla luciferase signal (FIG. 1a). […] Using this assay the luminescence from the firefly luciferase reaction may be quenched while the luminescent reaction of Renilla luciferase can be activated. […]
The psiCHECK-miR122 vector was then employed in a small molecule screen in Huh7 cells to discover modifiers of miR-122 function. […] Cells were exposed to the small molecules and the relative luciferase signal was measured after 48 hours using a Dual Luciferase Assay Kit (Promega). […]
The analogs were screened for activity using the previously described miR-122 assay. […] The standard deviation was calculated from three independent assays. […]

**Q.** `O=C(Nc1ccc2ccccc2c1)c1ccc([N+](=O)[O-])cc1` [1b, N-(Naphthalen-2-yl)-4-nitrobenzamide] was tested. Which “relative luciferase units (RLU) normalized to a DMSO control” value did it give?
**A.** 5.7-6.7 RLU

**Q.** With `CC(=O)c1ccc(C(=O)Nc2ccc3ccccc3c2)cc1` [1a, 4-Acetyl-N-(naphthalen-3-yl)benzamide] as the compound, how does the “relative luciferase units (RLU) normalized to a DMSO control” value read?
**A.** 5.7-6.7 RLU
